Values from PubChem BioAssay AID1259254 (NCATS, 2017)
The deposit covers about 59,000 reagents; below is a random part of them. In the full data, about 1,550 (2.6%) got an active call. 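G2 share is only a proxy for re-replication; each gene was hit by three separate siRNAs, and active genes were retested.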 Raw values vary from plate to plate and are shown uncorrected. The numbers tell different reagents against one gene apart. Not stated in the record: the amount of reagent.

- Aim: 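Finding genes that stop cells copying their DNA twice in one cycle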 (primary screen)
- Cells: human HCT116 colorectal cancer cells
- Reagent: single siRNA against human genes
- Duration: 3 days
- Detection: 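Nuclei stained with Hoechst and imaged; cell-cycle phase assigned by DNA content; G2 share scaled per plate, non-targeting siRNA 0%, GMNN siRNA 100%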
- Direction: G2 robust z-score and G2 cells, % of GMNN control: higher = more G2 cells, more excess DNA replication; raw share of cells in G2: higher = larger share of cells with G2 DNA content
- Active means: 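An siRNA counts as active if its G2 robust z-score lies at least 5 MADs above the screen median; here such calls match roughly 38% of GMNN control or more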

gene | siRNA no. | G2 robust z-score | G2 cells, % of GMNN control | raw share of cells in G2 (%) | Outcome
KRTAP11-1 | 1 | 4.82 | 36.9 | 16.7 | inactive
KRTAP11-1 | 2 | 1.26 | 11.8 | 8.42 | inactive
KRTAP11-1 | 3 | -0.0609 | 2.54 | 5.21 | inactive
GBX2 | 1 | 0.23 | 4.59 | 5.29 | inactive
GBX2 | 2 | 5.28 | 40.1 | 19.8 | active
GBX2 | 3 | -0.331 | 0.64 | 5.51 | inactive
SPRR4 | 1 | -1.47 | -7.38 | 2.44 | inactive
SPRR4 | 2 | 1.65 | 14.5 | 10 | inactive
SPRR4 | 3 | 5.99 | 45.1 | 23.7 | active
LRRC37BP1 | 1 | 1.2 | 11.4 | 7.46 | inactive
LRRC37BP1 | 2 | -1.01 | -4.12 | 1.74 | inactive
LRRC37BP1 | 3 | 3.3 | 26.2 | 13.7 | inactive
NTMT1 | 1 | 3.84 | 30 | 12.7 | inactive
NTMT1 | 2 | -0.527 | -0.74 | 3.57 | inactive
NTMT1 | 3 | 1.01 | 10.1 | 8.36 | inactive
STBD1 | 1 | -0.285 | 0.964 | 5.56 | inactive
STBD1 | 2 | 0.458 | 6.19 | 6.35 | inactive
STBD1 | 3 | -0.0714 | 2.47 | 4.22 | inactive
CHEK2 | 1 | -0.0913 | 2.33 | 6.31 | inactive
CHEK2 | 2 | -1.08 | -4.63 | 3.51 | inactive
CHEK2 | 3 | -0.947 | -3.69 | 2.5 | inactive
ARMCX5 | 1 | -0.319 | 0.725 | 4.9 | inactive
ARMCX5 | 2 | -0.721 | -2.1 | 3.67 | inactive
ARMCX5 | 3 | 0.139 | 3.94 | 3.74 | inactive
BCO2 | 1 | 0.196 | 4.35 | 7.24 | inactive
BCO2 | 2 | 0.266 | 4.84 | 5.95 | inactive
BCO2 | 3 | -1.18 | -5.34 | 2.81 | inactive
CFD | 1 | 1.71 | 15 | 10.8 | inactive
CFD | 2 | -0.28 | 0.996 | 5.26 | inactive
CFD | 3 | -0.659 | -1.67 | 3.29 | inactive

No new results follow: entries from further up.
gene | siRNA no. | G2 robust z-score | G2 cells, % of GMNN control | raw share of cells in G2 (%) | Outcome
BCO2 | 1 | 0.196 | 4.35 | 7.24 | inactive
BCO2 | 2 | 0.266 | 4.84 | 5.95 | inactive
BCO2 | 3 | -1.18 | -5.34 | 2.81 | inactive
CFD | 1 | 1.71 | 15 | 10.8 | inactive
